Measured values from publication PMC7725506, “Functional Diversification of SRSF Protein Kinase to Control Ubiquitin-Dependent Neurodevelopmental Signaling” (Developmental Cell, 2020).
Results are given in words; binding and its absence hold for the method and conditions named. For part of these data: Binding seen in cells or lysates may run through a third protein. Some results given as binding are weak or reduced against the parent protein; the word gives no strength.

By UniProt entry, the sequences of proteins in these tests, tags left out.
UniProt P22227: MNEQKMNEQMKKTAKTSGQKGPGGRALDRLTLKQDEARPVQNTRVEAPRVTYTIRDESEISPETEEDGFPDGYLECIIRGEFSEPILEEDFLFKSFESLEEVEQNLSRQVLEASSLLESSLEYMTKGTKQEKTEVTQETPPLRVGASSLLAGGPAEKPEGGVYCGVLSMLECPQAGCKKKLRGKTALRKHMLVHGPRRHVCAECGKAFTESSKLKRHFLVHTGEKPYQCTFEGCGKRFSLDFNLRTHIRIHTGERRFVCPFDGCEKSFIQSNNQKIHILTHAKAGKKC

Tests used:
[1] = molecular target: REX1/ZFP42 transcription factor, endogenous in mESCs (mouse (endogenous in mESCs)) (UniProt P22227); test: co-IP; lysates of WT, Rlim-/y, RNF12 WT-KI, 4xSA-KI, ΔSR-KI and W576Y-KI mESCs treated with 10 μM MG132 for 6 h; protein A or G beads with 2 μg antibody in lysis buffer overnight at 4°C; washed three times with lysis buffer supplemented with 500 μM NaCl (so in the source); immunoblotting for RNF12 and REX1; which protein was precipitated is not told
[2] = molecular target: GST-REX1, recombinant (UniProt P22227); test: pull-down; 0.5 μg RNF12 incubated with WT or kinase dead SRPK1 or SRPK2 and 2 mM ATP for 1 h at 37°C, ATP depleted with apyrase, mixed with 0.5 μg GST-REX1 in 500 μl GST pulldown buffer (10 mM Tris pH 8.0, 150 mM NaCl, 10% glycerol, 0.1% Triton X-100) overnight at 4°C; GSH Sepharose 4B beads 2 h at 4°C; immunoblotting; both purified

binding [1] | binding [2] | Binder
binds |  | RNF12 ΔSR (residues 206-229 of the SR-motif deleted), knock-in in mESCs (protein, UniProt Q9WTV7) MENSDSNDKGSDQSAAQRRSQMDRLDREEAFYQFVNNLSEEDYRLMRDNNLLGTPGESTEEELLRRLQQIKEGPPPQSPDENRAGESSDDVTNSDSIIDWLNSVRQTGNTTRSGQRGNQSWRAVSRTNPNSGDFRFSLEINVNRNNGSQTSENESEPSTRRLSVENMESSSQRQMENSASESASARPSRAERNSAEAVTEVPTTRPLQPTSEIPRRAPTLEQSSENEPEGSSRTRHHVTLRQQISGPELLGRGLFAASGSRNPSQGTSSSDTGSNSESSGSGQRPPTIVLDLQVRRVRPGEYRQRDSIASRTRSRSQAPNNTVTYESERGGFRRTFSRSERAGVRTYVSTIRIPIRRILNTGLSETTSVAIQTMLRQIMTGFGELSYFMYSDSDSEPSASVSSRNVERVESRNGRGSSGGGNSSGSSSSSSPSPSSSGESSESSSEMFEGSSEGGSSGPSRRDGRHRAPVTFDESGSLPFLSLAQFFLLNEDDEDQPRGLTKEQIDNLAMRSFGENDALKTCSVCITEYTEGNKLRKLPCSHEYHVHCIDRWLSENSTCPICRRAVLSSGNRESVV
binds |  | RNF12 4xSA (S212A/S214A/S227A/S229A), knock-in in mESCs (protein, UniProt Q9WTV7 1-600) MENSDSNDKGSDQSAAQRRSQMDRLDREEAFYQFVNNLSEEDYRLMRDNNLLGTPGESTEEELLRRLQQIKEGPPPQSPDENRAGESSDDVTNSDSIIDWLNSVRQTGNTTRSGQRGNQSWRAVSRTNPNSGDFRFSLEINVNRNNGSQTSENESEPSTRRLSVENMESSSQRQMENSASESASARPSRAERNSAEAVTEVPTTRAQRRARARAPEHRRTRARAERARAPLQPTSEIPRRAPTLEQSSENEPEGSSRTRHHVTLRQQISGPELLGRGLFAASGSRNPSQGTSSSDTGSNSESSGSGQRPPTIVLDLQVRRVRPGEYRQRDSIASRTRSRSQAPNNTVTYESERGGFRRTFSRSERAGVRTYVSTIRIPIRRILNTGLSETTSVAIQTMLRQIMTGFGELSYFMYSDSDSEPSASVSSRNVERVESRNGRGSSGGGNSSGSSSSSSPSPSSSGESSESSSEMFEGSSEGGSSGPSRRDGRHRAPVTFDESGSLPFLSLAQFFLLNEDDEDQPRGLTKEQIDNLAMRSFGENDALKTCSVCITEYTEGNKLRKLPCSHEYHVHCIDRWLSENSTCPICRRAVLSSGNRESVV
 | binds | Recombinant RNF12, unphosphorylated (incubated with kinase dead SRPK1 or SRPK2) (protein, UniProt Q9WTV7 1-600) MENSDSNDKGSDQSAAQRRSQMDRLDREEAFYQFVNNLSEEDYRLMRDNNLLGTPGESTEEELLRRLQQIKEGPPPQSPDENRAGESSDDVTNSDSIIDWLNSVRQTGNTTRSGQRGNQSWRAVSRTNPNSGDFRFSLEINVNRNNGSQTSENESEPSTRRLSVENMESSSQRQMENSASESASARPSRAERNSAEAVTEVPTTRAQRRARSRSPEHRRTRARAERSRSPLQPTSEIPRRAPTLEQSSENEPEGSSRTRHHVTLRQQISGPELLGRGLFAASGSRNPSQGTSSSDTGSNSESSGSGQRPPTIVLDLQVRRVRPGEYRQRDSIASRTRSRSQAPNNTVTYESERGGFRRTFSRSERAGVRTYVSTIRIPIRRILNTGLSETTSVAIQTMLRQIMTGFGELSYFMYSDSDSEPSASVSSRNVERVESRNGRGSSGGGNSSGSSSSSSPSPSSSGESSESSSEMFEGSSEGGSSGPSRRDGRHRAPVTFDESGSLPFLSLAQFFLLNEDDEDQPRGLTKEQIDNLAMRSFGENDALKTCSVCITEYTEGNKLRKLPCSHEYHVHCIDRWLSENSTCPICRRAVLSSGNRESVV
